Source: paper PMC6201879, “N-substituted phenylbenzamides of the niclosamide chemotype attenuate obesity related changes in high fat diet fed mice” (PLoS ONE, 2018)

Tested on: PH5CH8 liver cells
Experiment: High-throughput hepatic de novo lipogenesis (DNL) assay, high content imaging of steatotic phenotype
Format: cell-based, human

SMILES	shape of concentration curve in DNL assay
CC(C)(C)c1ccc(O)c(C(=O)Nc2ccc(C(=O)O)cc2Cl)c1 [Compound 500200, 4-[(5-tert-butyl-2-hydroxybenzene)amido]-3-chlorobenzoic acid]	inverse concentration curves
CC(C)(C)c1ccc(O)c(C(=O)Nc2ccc(C(=O)O)cc2C(F)(F)F)c1 [Compound 500873, 4-[(5-tert-butyl-2-hydroxy)amido]-3-(trifluoromethyl)benzoic acid]	inverse concentration curves
